Results are given in words; binding and its absence hold for the method and conditions named. Binding seen in cells or lysates may run through a third protein. A result given as binding can be weak or reduced; the word gives no strength.
Columns and labels:
Test in all cases: co-IP; reverse co-IP under native conditions: protein G-Sepharose with 4 μg antibody against the partner, 1 mg wild-type mouse brain lysate, overnight at 4 °C; blot probed with an anti-Tau antibody; normal IgG as negative control
[1] = biological target: synaptophysin (endogenous) (mouse (endogenous in C57BL/6 brain)) (UniProt Q62277)
[2] = biological target: synapsin 1 (endogenous) (mouse (endogenous in C57BL/6 brain)) (UniProt O88935)
[3] = biological target: β-synuclein (endogenous) (mouse (endogenous in C57BL/6 brain)) (UniProt Q91ZZ3)
[4] = biological target: mitochondrial creatine kinase U-type (endogenous) (mouse (endogenous in C57BL/6 brain)) (UniProt P30275)
[5] = biological target: T1, synaptogyrin-3 (endogenous) (mouse (endogenous in C57BL/6 brain)) (UniProt Q8R191)
T1 sequence: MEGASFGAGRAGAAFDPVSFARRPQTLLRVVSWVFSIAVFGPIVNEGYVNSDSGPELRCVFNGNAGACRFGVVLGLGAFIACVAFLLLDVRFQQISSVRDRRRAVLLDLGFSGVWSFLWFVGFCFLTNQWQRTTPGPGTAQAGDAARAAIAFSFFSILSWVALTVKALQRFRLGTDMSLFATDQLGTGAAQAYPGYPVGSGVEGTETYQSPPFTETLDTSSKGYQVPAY

Chains of the proteins cited; added tags and fusions are not shown.
UniProt Q62277: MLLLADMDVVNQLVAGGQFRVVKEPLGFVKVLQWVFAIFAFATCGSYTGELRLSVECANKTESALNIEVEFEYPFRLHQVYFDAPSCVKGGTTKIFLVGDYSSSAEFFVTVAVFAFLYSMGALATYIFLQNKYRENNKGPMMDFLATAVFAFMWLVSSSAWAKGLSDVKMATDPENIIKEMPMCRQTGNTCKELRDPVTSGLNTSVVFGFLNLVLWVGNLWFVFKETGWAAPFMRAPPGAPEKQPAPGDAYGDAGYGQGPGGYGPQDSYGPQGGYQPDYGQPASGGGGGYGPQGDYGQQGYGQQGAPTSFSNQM
UniProt Q91ZZ3: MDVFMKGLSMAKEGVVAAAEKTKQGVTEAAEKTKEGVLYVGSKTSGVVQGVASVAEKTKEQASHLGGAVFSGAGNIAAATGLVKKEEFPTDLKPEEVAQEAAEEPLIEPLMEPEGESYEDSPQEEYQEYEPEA
UniProt P61264: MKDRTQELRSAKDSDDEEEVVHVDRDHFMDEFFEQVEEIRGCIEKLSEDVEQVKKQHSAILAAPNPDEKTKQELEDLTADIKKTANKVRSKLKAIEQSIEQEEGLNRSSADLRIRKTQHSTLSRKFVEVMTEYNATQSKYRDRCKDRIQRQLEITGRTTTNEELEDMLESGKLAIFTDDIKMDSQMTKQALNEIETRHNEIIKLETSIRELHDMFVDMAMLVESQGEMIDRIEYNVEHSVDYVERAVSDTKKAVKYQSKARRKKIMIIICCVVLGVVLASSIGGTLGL

[6] = biological target: syntaxin 1B (endogenous) (mouse (endogenous in C57BL/6 brain)) (UniProt P61264)

binding [1]: binds
binding [2]: binds
binding [3]: binds
binding [4]: binds
binding [5]: binds
binding [6]: binds
Substance: Tau (total Tau of adult mouse brain) (from UniProt P10637-2)

— article PMC4825019
